Experimental data reported in the supplement of paper PMC4604168 (melanoma cell lines).
The other results are listed elsewhere or left out. Many values rest on one well or one pass, so single values are uncertain.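 Cells were imaged in 1,536-well plates, and nuclei stained with an antibody against cleaved PARP were counted against all DNA-stained nuclei to give the apoptosis fraction. Screening doses were chosen to leave most cells alive, and resting and induced cleaved-PARP levels differ strongly between cell lines.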

Legend:
Assay in all cases: cleaved PARP positive nuclei fraction relative to DMSO control; melanoma cells; higher = more apoptosis
Details in all cases: library dose: low library concentration; 72 h
COLO792 = system: COLO792
COLO800 = system: COLO800
COLO829 = system: COLO829
G361 = system: G361
IPC-298 = system: IPC-298
IST-MEL1 = system: IST-MEL1
LB2518-MEL = system: LB2518-MEL
LOXIMVI = system: LOXIMVI
MZ2-MEL = system: MZ2-MEL
MeWo = system: MeWo
RPMI7951 = system: RPMI7951
RVH-421 = system: RVH-421
SkMel28 = system: SkMel28
SkMel2 = system: SkMel2
SkMel30 = system: SkMel30
SkMel5 = system: SkMel5
UACC257 = system: UACC257
UACC62 = system: UACC62
MEL-HO = system: MEL-HO

Structure (SMILES)	cleaved PARP positive nuclei fraction (COLO792) [%]	cleaved PARP positive nuclei fraction (COLO800) [%]	cleaved PARP positive nuclei fraction (COLO829) [%]	cleaved PARP positive nuclei fraction (G361) [%]	cleaved PARP positive nuclei fraction (IPC-298) [%]	cleaved PARP positive nuclei fraction (IST-MEL1) [%]	cleaved PARP positive nuclei fraction (LB2518-MEL) [%]	cleaved PARP positive nuclei fraction (LOXIMVI) [%]	cleaved PARP positive nuclei fraction (MZ2-MEL) [%]	cleaved PARP positive nuclei fraction (MeWo) [%]	cleaved PARP positive nuclei fraction (RPMI7951) [%]	cleaved PARP positive nuclei fraction (RVH-421) [%]	cleaved PARP positive nuclei fraction (SkMel28) [%]	cleaved PARP positive nuclei fraction (SkMel2) [%]	cleaved PARP positive nuclei fraction (SkMel30) [%]	cleaved PARP positive nuclei fraction (SkMel5) [%]	cleaved PARP positive nuclei fraction (UACC257) [%]	cleaved PARP positive nuclei fraction (UACC62) [%]	cleaved PARP positive nuclei fraction (MEL-HO) [%]
C=CCNC1=C2C[C@@H](C)C[C@H](OC)[C@H](O)[C@@H](C)/C=C(\C)[C@H](OC(N)=O)[C@@H](OC)/C=C\C=C(/C)C(=O)NC(=CC1=O)C2=O [Tanespimycin] + Cn1cc(/C=C2\C(=O)Nc3cccnc32)c2ccccc21 [GW441756] (first compound 0.002 µM, partner dose 0.4 µM)	94.3	340	72.5	138	139	59.7	66.7	76.4	49.1	140	82.7	95	150	58.9	274	98.1	224	66.8	–
COCC[n+]1c2c(n(Cc3cnccn3)c1C)C(=O)c1ccccc1C2=O + CN(C)S(=O)(=O)c1ccc2c(c1)/C(=C/c1cc3c([nH]1)CCCC3)C(=O)N2 [SU6656] (first compound 0.0004 µM, partner dose 0.4 µM)	124	25.8	51.9	70.2	99.9	87.4	–	75.3	–	164	40	166	216	–	76.8	62.3	105	136	128
C=CCn1c(=O)c2cnc(Nc3ccc(N4CCN(C)CC4)cc3)nc2n1-c1cccc(C(C)(C)O)n1 + OCCn1cc(-c2cnc3nnn(Cc4ccc5ncccc5c4)c3n2)cn1 [PF04217903] (first compound 0.02 µM, partner dose 1 µM)	153	11.4	109	138	184	266	–	46.7	–	84.9	72.5	318	79.1	52.5	245	230	20.2	50.4	73.6
OCc1c[nH]c2ccccc12 [Indole-3-carbinol] + CCc1ccc(CCOc2ccc(CC3SC(=O)NC3=O)cc2)nc1 [pioglitazone] (first compound 0.8 µM, partner dose 2 µM)	46.7	225	39.8	84.8	130	70.8	39.3	104	64.3	86.2	82.9	56.6	180	73.5	114	85.8	757	116	–
C=CCNC1=C2C[C@@H](C)C[C@H](OC)[C@H](O)[C@@H](C)/C=C(\C)[C@H](OC(N)=O)[C@@H](OC)/C=C\C=C(/C)C(=O)NC(=CC1=O)C2=O [Tanespimycin] + CC(C)CCN1c2nc(Nc3cc(F)c(O)c(F)c3)ncc2N(C)C(=O)C1C [BID1870] (first compound 0.002 µM, partner dose 0.2 µM)	76.6	509	32.8	118	206	114	34.8	129	104	55.4	63.4	81.7	112	114	94.2	82	86.3	168	–
O=C(Nc1cccc(Cl)c1)Nc1ncc(CCNc2ncnc3ccsc23)s1 + CN(NC(=O)CC(=O)NN(C)C(=S)c1ccccc1)C(=S)c1ccccc1 [STA4783] (first compound 0.0008 µM, partner dose 0.006 µM)	111	75.7	152	145	202	127	–	128	–	174	51.4	99.6	71.6	–	65.2	56.9	102	96.3	75.1
Cc1nc(Nc2ncc(C(=O)Nc3c(C)cccc3Cl)s2)cc(N2CCN(CCO)CC2)n1 [dasatanib] + NC(=O)Nc1cc(-c2cccc(F)c2)sc1C(=O)N[C@H]1CCCNC1 [AZD7762] (first compound 0.004 µM, partner dose 0.02 µM)	113	77.6	70.2	101	134	110	–	26.7	–	198	74.6	61.8	145	–	67.9	143	82.6	110	79
C[C@]1(c2nc3c(C(N)=O)cccc3[nH]2)CCCN1 [Veliparib] + Cc1cc(N2CCOCC2)cc2[nH]c(-c3c(NC[C@@H](O)c4cccc(Cl)c4)cc[nH]c3=O)nc12 [BMS536924] (first compound 1.4 µM, partner dose 0.2 µM)	57.2	120	204	99.8	194	82.1	–	139	–	60.8	163	83.3	72.3	–	138	71.8	188	140	140
Cc1ccc(NC(=O)c2cccc(N(C)C)c2)cc1NC(=O)c1ccc(O)cc1 + CC(C)(C)c1cnc(CSc2cnc(NC(=O)C3CCNCC3)s2)o1 [SNS-032] (first compound 2 µM, partner dose 0.01 µM)	28.3	143	186	29.8	109	183	–	75.7	–	64.5	135	82.6	29.1	–	53.6	64.8	61.9	293	69.1
CC(=O)c1c(C)c2cnc(Nc3ccc(N4CCNCC4)cn3)nc2n(C2CCCC2)c1=O [palbociclib] + c1cc(-c2cnn3cc(-c4ccc(OCCN5CCCCC5)cc4)cnc23)ccn1 [Dorsomorphin] (first compound 0.04 µM, partner dose 0.4 µM)	63.4	82.3	95.5	226	124	78.3	166	60.9	104	43.3	177	235	205	49.3	108	100	142	142	–
C=CCNC1=C2C[C@@H](C)C[C@H](OC)[C@H](O)[C@@H](C)/C=C(\C)[C@H](OC(N)=O)[C@@H](OC)/C=C\C=C(/C)C(=O)NC(=CC1=O)C2=O [Tanespimycin] + COc1cc(N2CCC(N3CCN(C)CC3)CC2)ccc1Nc1ncc(Cl)c(Nc2ccccc2S(=O)(=O)C(C)C)n1 [NVP-TAE684] (first compound 0.002 µM, partner dose 0.08 µM)	88.1	124	58.1	81.3	59.9	85.6	66.7	86.4	95.5	126	106	193	67.7	76.4	44.3	94.3	286	52.8	–
Clc1ccc(Nc2nnc(Cc3ccncc3)c3ccccc23)cc1 [vatalanib] + COc1cc(Nc2ncc(F)c(Nc3ccc4c(n3)NC(=O)C(C)(C)O4)n2)cc(OC)c1OC [Tamatinib] (first compound 2 µM, partner dose 0.4 µM)	194	117	175	56.1	121	31.6	–	112	–	136	147	37.1	31.4	48.4	99.9	66.7	76.7	196	170
